Source: article PMC11523043
These are yes or no findings as the source states them, for the method shown. In cells and extracts the contact can be indirect. Some binding calls cover weakened binding; strength is not graded here. For some of these results: Sequences can lack the tags named with a protein.

Tests used:
Flag-tagged USP36 [1] = molecular target: T1, Flag-tagged USP36 (UniProt Q9P275); assay: co-IP; soluble nucleolar fraction of HeLa cells stably expressing Flag-USP36 (high-salt RIPA lysis, diluted), anti-Flag antibody, followed by IB
T1 sequence: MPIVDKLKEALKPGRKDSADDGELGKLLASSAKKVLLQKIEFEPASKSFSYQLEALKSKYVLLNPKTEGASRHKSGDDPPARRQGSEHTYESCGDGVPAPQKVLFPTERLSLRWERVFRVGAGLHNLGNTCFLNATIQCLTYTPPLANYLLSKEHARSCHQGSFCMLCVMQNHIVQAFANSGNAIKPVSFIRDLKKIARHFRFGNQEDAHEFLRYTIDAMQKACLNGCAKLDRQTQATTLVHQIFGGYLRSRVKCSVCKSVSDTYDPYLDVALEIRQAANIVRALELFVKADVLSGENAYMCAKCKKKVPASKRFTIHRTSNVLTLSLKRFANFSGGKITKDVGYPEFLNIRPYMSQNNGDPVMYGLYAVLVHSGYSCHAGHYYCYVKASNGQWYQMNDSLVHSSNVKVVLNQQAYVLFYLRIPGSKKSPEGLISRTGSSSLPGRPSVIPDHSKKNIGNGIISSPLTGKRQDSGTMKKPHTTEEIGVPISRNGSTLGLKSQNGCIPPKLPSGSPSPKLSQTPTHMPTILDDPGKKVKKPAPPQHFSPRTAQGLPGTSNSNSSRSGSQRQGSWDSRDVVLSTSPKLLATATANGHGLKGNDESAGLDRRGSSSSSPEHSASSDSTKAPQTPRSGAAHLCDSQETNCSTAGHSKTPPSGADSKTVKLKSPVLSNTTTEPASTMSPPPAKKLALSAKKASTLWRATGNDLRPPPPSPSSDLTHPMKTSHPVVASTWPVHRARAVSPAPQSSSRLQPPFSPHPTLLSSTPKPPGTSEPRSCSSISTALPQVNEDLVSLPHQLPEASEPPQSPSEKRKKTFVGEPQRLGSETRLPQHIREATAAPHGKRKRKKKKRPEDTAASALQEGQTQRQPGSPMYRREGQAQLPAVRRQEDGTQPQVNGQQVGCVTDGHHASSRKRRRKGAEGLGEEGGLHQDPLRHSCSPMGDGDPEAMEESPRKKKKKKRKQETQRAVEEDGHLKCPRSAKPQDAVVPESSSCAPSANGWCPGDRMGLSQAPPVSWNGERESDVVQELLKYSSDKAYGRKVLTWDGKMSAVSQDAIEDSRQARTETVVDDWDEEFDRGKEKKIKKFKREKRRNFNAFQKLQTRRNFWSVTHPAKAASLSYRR

[2] = molecular target: T2, endogenous USP36 (human (endogenous in HEK293, H1299)) (UniProt Q9P275); assay: co-IP; 293 cell lysates immunoprecipitated with anti-USP36, IB with anti-Las1L antibody; both endogenous
T2 sequence: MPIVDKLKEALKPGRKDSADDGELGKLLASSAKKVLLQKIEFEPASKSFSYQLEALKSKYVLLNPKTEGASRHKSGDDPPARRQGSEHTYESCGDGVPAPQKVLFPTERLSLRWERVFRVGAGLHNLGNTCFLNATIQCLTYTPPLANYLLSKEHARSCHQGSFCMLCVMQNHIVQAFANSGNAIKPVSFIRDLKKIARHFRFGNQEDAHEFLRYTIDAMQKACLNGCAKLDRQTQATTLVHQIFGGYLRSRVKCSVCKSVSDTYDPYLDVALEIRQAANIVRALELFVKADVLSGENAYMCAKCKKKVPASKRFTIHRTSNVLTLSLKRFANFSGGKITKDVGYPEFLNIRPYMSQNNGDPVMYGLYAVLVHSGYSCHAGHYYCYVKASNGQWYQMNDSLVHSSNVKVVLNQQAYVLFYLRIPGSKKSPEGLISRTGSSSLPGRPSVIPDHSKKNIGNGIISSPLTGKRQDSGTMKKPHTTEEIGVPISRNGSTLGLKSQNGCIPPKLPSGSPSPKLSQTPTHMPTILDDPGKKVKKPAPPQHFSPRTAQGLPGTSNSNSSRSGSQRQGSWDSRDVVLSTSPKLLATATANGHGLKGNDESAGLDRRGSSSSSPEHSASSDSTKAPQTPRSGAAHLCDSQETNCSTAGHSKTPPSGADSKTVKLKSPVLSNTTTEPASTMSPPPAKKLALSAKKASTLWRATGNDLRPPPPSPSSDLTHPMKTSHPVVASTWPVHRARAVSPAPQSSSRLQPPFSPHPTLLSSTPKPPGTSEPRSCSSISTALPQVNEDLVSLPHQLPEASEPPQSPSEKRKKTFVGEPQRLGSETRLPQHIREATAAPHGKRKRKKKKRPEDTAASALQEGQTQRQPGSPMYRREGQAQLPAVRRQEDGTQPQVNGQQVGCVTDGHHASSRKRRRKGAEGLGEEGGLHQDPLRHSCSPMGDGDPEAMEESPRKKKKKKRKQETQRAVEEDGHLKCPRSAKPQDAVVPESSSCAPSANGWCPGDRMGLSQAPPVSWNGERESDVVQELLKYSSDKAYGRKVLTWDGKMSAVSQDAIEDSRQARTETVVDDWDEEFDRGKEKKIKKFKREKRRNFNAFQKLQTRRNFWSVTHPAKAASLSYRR

[3] = molecular target: T3, Flag-USP36 C-terminal nucleolar localization signal (NoLS)-containing region (amino acids 801-1121) (UniProt Q9P275); assay: co-IP; lysates of cells (HEK293, HeLa or H1299) transfected with the Flag-tagged bait, anti-Flag (M2) agarose, 4°C for 4 hours, 50 mmol/L Tris-HCl pH 8.0, 0.5% Nonidet P-40, 150 mmol/L NaCl; endogenous partner detected by IB; for Flag-USP36 also in the presence of 100 μg/mL RNase A and 100 U/mL RNase T1
T3 sequence: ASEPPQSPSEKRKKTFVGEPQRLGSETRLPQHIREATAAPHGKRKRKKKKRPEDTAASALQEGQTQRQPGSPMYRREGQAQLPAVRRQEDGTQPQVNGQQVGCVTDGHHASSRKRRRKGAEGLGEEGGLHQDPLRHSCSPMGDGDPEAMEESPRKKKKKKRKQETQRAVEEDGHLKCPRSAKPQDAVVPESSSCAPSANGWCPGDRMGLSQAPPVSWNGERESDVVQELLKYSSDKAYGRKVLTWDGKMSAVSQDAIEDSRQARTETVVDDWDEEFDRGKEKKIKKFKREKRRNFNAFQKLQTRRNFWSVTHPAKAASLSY

Flag-tagged USP36 [4] = molecular target: T1, Flag-tagged USP36; assay: as above

binding (Flag-tagged USP36 [1]): binds
binding [2]: binds
binding [3]: binds
binding (Flag-tagged USP36 [4]): binds
B1: endogenous Las1L (enzyme, UniProt Q9Y4W2 1-734)
chain: MSWESGAGPGLGSQGMDLVWSAWYGKCVKGKGSLPLSAHGIVVAWLSRAEWDQVTVYLFCDDHKLQRYALNRITVWRSRSGNELPLAVASTADLIRCKLLDVTGGLGTDELRLLYGMALVRFVNLISERKTKFAKVPLKCLAQEVNIPDWIVDLRHELTHKKMPHINDCRRGCYFVLDWLQKTYWCRQLENSLRETWELEEFREGIEEEDQEEDKNIVVDDITEQKPEPQDDGKSTESDVKADGDSKGSEEVDSHCKKALSHKELYERARELLVSYEEEQFTVLEKFRYLPKAIKAWNNPSPRVECVLAELKGVTCENREAVLDAFLDDGFLVPTFEQLAALQIEYEDGQTEVQRGEGTDPKSHKNVDLNDVLVPKPFSQFWQPLLRGLHSQNFTQALLERMLSELPALGISGIRPTYILRWTVELIVANTKTGRNARRFSAGQWEARRGWRLFNCSASLDWPRMVESCLGSPCWASPQLLRIIFKAMGQGLPDEEQEKLLRICSIYTQSGENSLVQEGSEASPIGKSPYTLDSLYWSVKPASSSFGSEAKAQQQEEQGSVNDVKEEEKEEKEVLPDQVEEEEENDDQEEEEEDEDDEDDEEEDRMEVGPFSTGQESPTAENARLLAQKRGALQGSAWQVSSEDVRWDTFPLGRMPGQTEDPAELMLENYDTMYLLDQPVLEQRLEPSTCKTDTLGLSCGVGSGNCSNSSSSNFEGLLWSQGQLHGLKTGLQLF
